Drawing on article PMC8473878, this text covers binding for three substances.

The chains behind the UniProt entries cited, without tags or fusion partners. Residues count along the entry.
UniProt Q14240: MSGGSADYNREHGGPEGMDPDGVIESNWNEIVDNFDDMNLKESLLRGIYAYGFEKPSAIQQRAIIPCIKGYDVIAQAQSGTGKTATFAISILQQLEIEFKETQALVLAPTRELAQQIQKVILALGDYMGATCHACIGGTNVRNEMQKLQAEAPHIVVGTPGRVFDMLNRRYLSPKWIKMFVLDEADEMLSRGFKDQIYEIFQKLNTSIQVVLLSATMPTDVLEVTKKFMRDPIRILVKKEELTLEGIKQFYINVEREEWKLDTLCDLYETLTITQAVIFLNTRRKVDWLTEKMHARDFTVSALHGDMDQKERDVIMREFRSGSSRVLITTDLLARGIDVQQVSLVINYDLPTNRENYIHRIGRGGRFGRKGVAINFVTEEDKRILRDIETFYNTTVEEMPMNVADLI
UniProt P30530, residues 26-894: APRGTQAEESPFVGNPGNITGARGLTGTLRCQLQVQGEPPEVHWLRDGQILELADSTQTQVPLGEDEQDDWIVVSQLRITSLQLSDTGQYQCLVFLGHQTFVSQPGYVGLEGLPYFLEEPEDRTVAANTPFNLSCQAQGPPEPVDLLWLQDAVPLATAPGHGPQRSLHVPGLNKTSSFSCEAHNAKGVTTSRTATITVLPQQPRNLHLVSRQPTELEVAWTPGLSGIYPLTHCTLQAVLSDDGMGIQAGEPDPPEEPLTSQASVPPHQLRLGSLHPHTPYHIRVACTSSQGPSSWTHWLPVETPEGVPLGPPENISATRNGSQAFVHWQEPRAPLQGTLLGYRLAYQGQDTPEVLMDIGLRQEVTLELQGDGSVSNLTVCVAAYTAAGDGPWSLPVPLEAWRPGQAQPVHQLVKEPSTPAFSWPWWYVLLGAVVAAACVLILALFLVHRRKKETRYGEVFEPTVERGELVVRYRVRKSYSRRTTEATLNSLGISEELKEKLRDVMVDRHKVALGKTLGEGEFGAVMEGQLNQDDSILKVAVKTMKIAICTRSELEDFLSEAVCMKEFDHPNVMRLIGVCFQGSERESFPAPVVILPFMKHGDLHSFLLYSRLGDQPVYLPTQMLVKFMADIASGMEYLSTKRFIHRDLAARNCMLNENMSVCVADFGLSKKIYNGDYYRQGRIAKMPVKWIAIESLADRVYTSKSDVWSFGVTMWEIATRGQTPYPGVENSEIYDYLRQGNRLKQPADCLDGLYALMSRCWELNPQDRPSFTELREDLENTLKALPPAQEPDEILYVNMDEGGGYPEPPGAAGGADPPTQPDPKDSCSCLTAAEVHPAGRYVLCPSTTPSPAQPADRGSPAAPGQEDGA
UniProt P10909, residues 23-449: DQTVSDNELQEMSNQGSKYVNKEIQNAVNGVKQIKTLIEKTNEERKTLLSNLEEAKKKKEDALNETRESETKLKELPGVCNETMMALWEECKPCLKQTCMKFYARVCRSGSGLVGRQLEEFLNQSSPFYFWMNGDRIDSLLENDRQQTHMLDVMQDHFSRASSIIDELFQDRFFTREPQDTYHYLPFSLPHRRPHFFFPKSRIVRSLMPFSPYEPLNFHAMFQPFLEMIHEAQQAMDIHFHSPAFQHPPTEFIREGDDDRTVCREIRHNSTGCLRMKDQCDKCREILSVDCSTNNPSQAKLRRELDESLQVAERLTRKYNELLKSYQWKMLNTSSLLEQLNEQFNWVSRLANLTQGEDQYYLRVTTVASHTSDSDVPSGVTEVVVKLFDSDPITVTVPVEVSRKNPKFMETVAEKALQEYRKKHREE

In this test the target is T1, 3×FLAG-fused B4GALNT2 (β1,4-N-acetylgalactosaminyltransferase 2) (UniProt Q8NHY0).
T1 sequence: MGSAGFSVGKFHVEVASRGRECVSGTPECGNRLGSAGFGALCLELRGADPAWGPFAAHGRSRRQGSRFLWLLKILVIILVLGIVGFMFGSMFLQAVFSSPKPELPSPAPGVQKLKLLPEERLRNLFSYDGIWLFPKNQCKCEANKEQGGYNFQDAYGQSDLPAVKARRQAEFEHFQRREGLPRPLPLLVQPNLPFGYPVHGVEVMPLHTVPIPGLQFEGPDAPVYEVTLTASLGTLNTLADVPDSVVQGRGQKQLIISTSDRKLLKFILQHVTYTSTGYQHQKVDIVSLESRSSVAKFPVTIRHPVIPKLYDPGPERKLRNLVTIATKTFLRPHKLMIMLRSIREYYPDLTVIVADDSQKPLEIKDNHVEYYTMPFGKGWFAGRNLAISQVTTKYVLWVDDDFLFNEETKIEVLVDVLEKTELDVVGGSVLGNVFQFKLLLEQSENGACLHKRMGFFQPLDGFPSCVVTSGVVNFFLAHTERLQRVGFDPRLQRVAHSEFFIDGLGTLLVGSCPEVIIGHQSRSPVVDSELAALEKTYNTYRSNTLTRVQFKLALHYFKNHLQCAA
The experiment in a line: affinity purification with mass spectrometry; Anti-Flag Co-IP from cell proteins of MDA-MB-231 stably overexpressing 3×FLAG-B4GALNT2 (OE) against control stable cells (NC); gel bands cut, LC-MS/MS (Q Exactive, Mascot, FDR<0.01).

These are yes or no findings as the source states them, for the method shown. In cells and extracts the contact can be indirect. Here binding means that the protein was enriched with, or labelled near, the bait; the list need not be complete. Where a sequence is shown, tags or fusion partners need not be part of it.

Regarding EIF4A2 (from UniProt Q14240 1-407), the binding result was “binds”.
In the case of “AXL (from UniProt P30530 26-894) (receptor)”, the binding result is on record as “binds”.
As for CLU (from UniProt P10909 23-449), the entry is “binds”.
